Values of other authors, collected in US20240238214A1, “NANOCONSTRUCTS AND NANOPARTICLE-MEDIATED DELIVERY OF IMMUNOGENIC CELL DEATH INDUCERS FOR ENHANCING CANCER IMMUNOTHERAPY” (Purdue Research Foundation, priority 2021, published 2024).

Conditions: cited from earlier work

CC(=O)O[C@H]1C(=O)[C@@]2(C)[C@H]([C@H](OC(=O)c3ccccc3)[C@]3(O)C[C@H](OC(=O)[C@H](O)[C@@H](NC(=O)c4ccccc4)c4ccccc4)C(C)=C1C3(C)C)[C@]1(OC(C)=O)CO[C@@H]1C[C@@H]2O [PTX, paclitaxel]
water solubility: 8.5 to 17 µg/mL
